# Test results published in PubChem BioAssay AID504834 (National Center for Advancing Translational Sciences (NCATS), 2011).
# Among all 320,000 compounds or so, about 22,000 (6.9%) were called active. This list was built around the results that the source calls inconclusive (neither active nor inactive); the mix of calls is not that of the screen. Calls follow the shape of the dose curve; as a rule, active = well fitted inhibition curve with a large enough effect; inconclusive = small, poorly fitted or top-dose-only effect, or another doubt; inactive = no such curve, though single readings can be large or run the other way. Where the call is inconclusive, the potency comes from a doubtful curve fit. Where a SMILES comes first, the peptide text is derived from it. [ ]: non-standard residue; d: D form. The star is where a group is joined. ξ: configuration not given here. Cbz = O=C(OCc1ccccc1)*; ξP = O=C(O)C1CCCN1
# Assay: Primary qHTS for delayed death inhibitors of the malarial parasite plastid, 96 hour incubation
# Conditions: P. falciparum luciferase reporter growth; series mostly up to 28.7 µM
# Summary of the method: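 Luminescence readout: decreased luciferase signal marks inhibited growth of reporter-expressing P. falciparum in infected red cells (2% hematocrit, 0.05% parasitemia final), exposed to compound two generations (96 h, 37 C, 5% CO2).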
# % is scaled to controls: 0 for no effect and ±100 for the full control effect; potency is read from the fitted curve at half-maximal effect.
SMILES,Potency,"activity change, negative = inhibition"
CCCSc1nnc(N)s1,"inconclusive: 18.5 µM [inhibitor, partial curve, poor fit]",–
COc1ccc(CNCCc2ccc(Cl)cc2Cl)cc1,active: 5.86 µM,–
Oc1ccc(Cl)c2cccnc12,active: 12 µM,–
CCC(=O)N1CCc2cc(S(=O)(=O)NC(Cc3ccccc3)C(=O)NC3CCCCC3C)ccc21 (stereo not given),"inconclusive: 13.1 µM [inhibitor, single point]",–
Cc1ccc(C(=O)N(Cc2ccc3c(c2)OCO3)Cc2nc3ccccc3c(=O)[nH]2)cc1,"inconclusive: 18.5 µM [inhibitor, partial curve, poor fit]",–
Cc1c(Cc2ccccc2)c(=O)oc2cc(OCC(N)=O)ccc12,inactive,–
COc1ccccc1N1CCN(S(=O)(=O)CCNC(=O)C2CCCC2)CC1,inactive,–
Cn1cc(Br)c(C(=O)Nc2nccs2)n1,inactive,–
CCOC(=O)CSc1nnc2c(n1)C1(C)CCC2C1(C)C (stereo not given),active: 3.29 µM,–
Nn1c(COc2ccccc2F)nnc1SCC(=O)NC1CCCCC1,inactive,–
CSc1nsc(N/N=C/c2ccccc2)c1C#N,"inconclusive: 18.5 µM [inhibitor, single point]",–
Cc1n[nH]c(=O)c2c(NC(=O)COC(=O)COc3cccc(Br)c3)oc(C)c12,inactive,–
CCOc1cc2[nH]c(=O)n(Cc3ccc(C(=O)NCCOC)cc3)c(=O)c2cc1OCC,"inconclusive: 3.29 µM [inhibitor, partial curve, poor fit]",–
CC(Sc1nnc(C2CC2)n1N)C(=O)NC1CCCCC1C (stereo not given),inactive,–
Cc1ccc(-c2csc(N(CCO)CCCn3c(C(F)(F)F)nc4ccccc43)n2)cc1,active: 6.57 µM,–
Cc1ccc(CC(=O)NCC2CCCCC2)cc1,inactive,–
COCCn1nnnc1C(c1ccccn1)N1CCN(c2cccc(C)c2C)CC1 (stereo not given),"inconclusive: 11.7 µM [inhibitor, partial curve, poor fit]",–
COc1ccc(C(=O)CSc2nnn(-c3cccc(NC(C)=O)c3)n2)cc1,"inconclusive: 18.5 µM [inhibitor, partial curve, poor fit]",–
COc1ccc(CN2CCNC(=O)C2CC(=O)NCc2csc(C)n2)c(F)c1 (stereo not given),inactive,–
Cc1ccc(NC(=O)C(C)Sc2nc3nc(C)cc(C)n3n2)cc1 (stereo not given),inactive,–
COc1ccccc1NC(=O)CCNS(=O)(=O)c1ccc2c(c1)CCN2C(C)=O,"inconclusive: 20.8 µM [inhibitor, partial curve, poor fit]",–
Cc1ccc(S(=O)(=O)N(C)C)cc1NC(=O)COC(=O)CSc1ccccc1,inactive,–
COc1cc(NC(=O)c2sc3ncn(CC(=O)N4CCCCC4)c(=O)c3c2C)cc(OC)c1OC,inactive,–
COc1ccc(S(=O)(=O)NCC(=O)N(Cc2ccco2)C(C(=O)NC(C)(C)C)C(C)C)cc1 (stereo not given),"inconclusive: 10.4 µM [inhibitor, single point]",–
CN(Cc1ccc(Br)cc1)CC(O)COc1cccc(Br)c1 (stereo not given),inactive,–

# Shown with bars between the fields: entries from further up.
SMILES | Potency | activity change, negative = inhibition
Cc1ccc(NC(=O)C(C)Sc2nc3nc(C)cc(C)n3n2)cc1 (stereo not given) | inactive | –
COc1ccccc1NC(=O)CCNS(=O)(=O)c1ccc2c(c1)CCN2C(C)=O | inconclusive: 20.8 µM [inhibitor, partial curve, poor fit] | –
Cc1ccc(S(=O)(=O)N(C)C)cc1NC(=O)COC(=O)CSc1ccccc1 | inactive | –

# Next part:

SMILES,Potency,"activity change, negative = inhibition"
O=C(CCN1C(=O)C2C3CCC(C3)C2C1=O)Nc1ccc(Cl)cc1Cl (stereo not given),active: 7.38 µM,–
Cc1cc(C)n(S(=O)(=O)/C=C/c2ccccc2)n1,–,inactive: 8.65% [at 5.75 µM]
Cc1cc(C(=O)CSc2nc3ccc(Cl)cc3[nH]2)c(C)n1C,"inconclusive: 13.1 µM [inhibitor, partial curve]",–
CC1CC(C)CN(C(=O)c2cc(S(=O)(=O)N3CCCCC3)ccc2Cl)C1 (stereo not given),inactive,–
CSc1ccc(NC(=O)Nc2cccn(Cc3ccccc3)c2=O)cc1,inactive,–
COCCn1cc(C(=O)c2cc(Br)ccc2O)cc(C#N)c1=O,"inconclusive: 20.8 µM [inhibitor, single point]",–
Cc1ccc(C)c(N2CCN(CC3CCCCC3)CC2)c1,"inconclusive: 18.5 µM [inhibitor, single point]",–
O=C(NCc1ccccc1Br)c1ccncc1,inactive,–
Brc1ccc(N=Nc2ccc3ccccc3n2)cc1,"inconclusive: 0.329 µM [inhibitor, full curve, poor fit]",–
CCc1ccc(S(=O)(=O)c2nnn3c2nc(NCCNC(C)=O)c2ccccc23)cc1,"inconclusive: 18.5 µM [inhibitor, single point]",–
Cc1noc(NS(=O)(=O)c2ccc(NC(=O)C(CC(C)C)N3C(=O)c4ccccc4C3=O)cc2)c1C (stereo not given),inactive,–
CCCOC1OC(=O)c2c1ccc(OC)c2OC (stereo not given),active: 5.22 µM,–
Cc1ccc(CNC(=O)C2CCC(CNS(=O)(=O)c3cccc4cccnc34)CC2)cc1 (stereo not given),active: 11.7 µM,–
CSc1ccccc1-c1nnc(-c2ccc(Cl)c(Cl)c2)o1,"inconclusive: 4.15 µM [inhibitor, partial curve, poor fit]",–
O=C(N/N=C/c1ccc([N+](=O)[O-])cc1)c1ccc(NS(=O)(=O)c2cccs2)cc1,"inconclusive: 9.28 µM [inhibitor, partial curve]",–
CC(C)N1CCN(Cc2ccc3nsnc3c2)CC1CCO (stereo not given),"inconclusive: 14.7 µM [inhibitor, single point]",–
COc1ccccc1C(=O)N/C(=C\c1cn(S(=O)(=O)N(C)C)c2ccccc12)C(=O)N1CCOCC1,"inconclusive: 8.28 µM [inhibitor, partial curve]",–
O=C(COc1cc(Cl)c(Cl)cc1Cl)Nc1ccc([N+](=O)[O-])cc1Cl,inactive,–
N#CCCN1CCN(CCC#N)CC1,inactive,–
C/C(CC(c1ccccc1)c1c(O)c2ccccc2oc1=O)=N\NC(N)=S (stereo not given),active: 10.4 µM,–
CN(C(=O)c1ccc2c(=O)n3c(nc2c1)CCCCC3)c1cccc(Cl)c1,"inconclusive: 13.1 µM [inhibitor, single point]",–
COC(=O)c1ccsc1NC(=O)C1=COCCO1,"inconclusive: 18.5 µM [inhibitor, single point]",–
O=C(CCl)Nc1c(C(=O)Nc2ccc3c(c2)OCCO3)oc2ccccc12,"inconclusive: 16.5 µM [inhibitor, single point]",–
O=C(COC(=O)c1cc(S(=O)(=O)N2CCOCC2)ccc1F)NCc1ccco1,"inconclusive: 2.08 µM [inhibitor, single point]",–
O=C(/C=C/c1ccccc1)NC(=S)NNC(=O)c1ccco1,inactive,–

SMILES,Potency,"activity change, negative = inhibition"
Cc1ccc(CNC(=O)c2cc3c(=O)n(C)c4ccccc4c3n2C)cc1,"inconclusive: 16.5 µM [inhibitor, partial curve, poor fit]",–
CCCCCCCNC(=O)C1(CC2CC(c3ccc(Cl)cc3)=NO2)CCN(C(=O)OC(C)(C)C)CC1 (stereo not given),active: 5.22 µM,–
COc1ccc(-c2cc(C3CCN(Cc4ccc([N+](=O)[O-])cc4)CC3)[nH]n2)cc1,"inconclusive: 11.7 µM [inhibitor, single point]",–
COc1ccc(CCC(=O)NNC(=O)Nc2cccc(Cl)c2)cc1,inactive,–
O=C(Nc1nnc(-c2ccccn2)o1)c1ccc(Br)cc1,"inconclusive: 18.5 µM [inhibitor, single point]",–
COc1cc(/C=C(/C#N)C(=O)NCc2ccccc2)cc(OC)c1OC,"inconclusive: 16.5 µM [inhibitor, single point]",–
COc1ccc2c(=O)c3c(=O)n(Cc4ccco4)c(-c4cc(OC)c(OC)c(OC)c4)nc3oc2c1,active: 1.65 µM,–
COc1ccc(OC)c(NC(=O)COC(=O)CNC(=O)c2ccc(OC)c(OC)c2)c1,inactive,–
Nc1c(N(CCO)C(=O)C2CCCCC2)c(=O)[nH]c(=O)n1Cc1ccccc1,inactive,–
COc1ccc(-n2c(SC(C)C(=O)Nc3ncc(Cl)cc3Cl)nc3ccccc32)cc1 (stereo not given),"inconclusive: 18.5 µM [inhibitor, single point]",–
O=C(O)c1cc2ccccc2n1-c1ccccc1,"inconclusive: 5.22 µM [inhibitor, partial curve, poor fit]",–
CCN(CC)c1ccc(Nc2cc3n(c(=O)n2)CCc2cc(OC)c(OC)cc2-3)cc1,active: 10.4 µM,–
CCCn1c(N)c(C(=O)CSc2nc3ncc(Cl)cc3[nH]2)c(=O)n(C)c1=O,"inconclusive: 4.65 µM [inhibitor, partial curve, poor fit]",–
Fc1ccc2c(c1)[C@H]1OCC[C@H]1[C@@H](c1ccco1)N2,inactive,–
CC(C)(C)C(=O)O/N=C(\N)c1ccc([N+](=O)[O-])s1,"inconclusive: 9.28 µM [inhibitor, partial curve]",–
CCN(CC)S(=O)(=O)c1ccc(NCc2ccccn2)nc1,inactive,–
COC(=O)CNC(=O)C1CCCN1C(=O)CNC(=O)OCc1ccccc1 (stereo not drawn) (Cbz-Gly-[ξP]-Gly-OMe),"inconclusive: 10.4 µM [inhibitor, partial curve]",–
COc1ccc(CC(=O)OCc2cc3ccccc3[nH]c2=O)cc1,"inconclusive: 0.185 µM [inhibitor, full curve, poor fit]",–
C=CCNC(=O)COc1ccccc1C#N,"inconclusive: 4.15 µM [inhibitor, single point]",–
O=[N+]([O-])c1cc(Cl)c(Cl)cc1Cl,"inconclusive: 2.33 µM [inhibitor, single point]",–
CN1CCN(C(=O)C2CC(=O)N(c3ccc(Cl)cc3)C2)CC1 (stereo not given),inactive,–
c1ccc(-c2noc(CCC3CCCC3)n2)cc1,"inconclusive: 11.7 µM [inhibitor, single point]",–
CCOC(=O)c1cnc(Nc2nc3ccccc3o2)nc1CSC(=S)N1CCCCC1,"inconclusive: 5.86 µM [inhibitor, partial curve, poor fit]",–
CCCc1cc(=O)oc2cc(OCC(=O)NCC(O)c3ccccc3)ccc12 (stereo not given),inactive,–
CC(C)c1c(C(=O)N/N=C/c2cccc(OCc3ccc(F)cc3)c2)nnn1-c1nonc1N,"inconclusive: 18.5 µM [inhibitor, single point]",–
